We go through 19 molecules from paper PMC10639050, “ZNF432 stimulates PARylation and inhibits DNA resection to balance PARPi sensitivity and resistance”.

By UniProt entry, the sequences of proteins in these tests, tags left out.
UniProt O94892: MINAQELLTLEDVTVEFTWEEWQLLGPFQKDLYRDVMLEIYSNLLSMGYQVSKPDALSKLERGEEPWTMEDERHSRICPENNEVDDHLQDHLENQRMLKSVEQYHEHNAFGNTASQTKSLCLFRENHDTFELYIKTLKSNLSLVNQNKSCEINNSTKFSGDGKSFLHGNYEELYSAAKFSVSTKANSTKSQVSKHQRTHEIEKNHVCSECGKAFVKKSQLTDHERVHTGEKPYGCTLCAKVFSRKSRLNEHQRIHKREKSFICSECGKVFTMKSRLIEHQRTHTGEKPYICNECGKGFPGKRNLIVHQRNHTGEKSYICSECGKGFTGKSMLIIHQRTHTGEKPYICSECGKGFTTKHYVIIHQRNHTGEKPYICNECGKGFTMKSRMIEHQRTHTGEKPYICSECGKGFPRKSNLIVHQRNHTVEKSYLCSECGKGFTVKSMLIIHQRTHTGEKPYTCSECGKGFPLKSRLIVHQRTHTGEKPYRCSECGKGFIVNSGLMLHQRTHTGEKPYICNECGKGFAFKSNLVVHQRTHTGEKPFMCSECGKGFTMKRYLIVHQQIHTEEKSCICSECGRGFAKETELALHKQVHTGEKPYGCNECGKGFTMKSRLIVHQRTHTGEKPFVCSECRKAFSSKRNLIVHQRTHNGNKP
UniProt O75530: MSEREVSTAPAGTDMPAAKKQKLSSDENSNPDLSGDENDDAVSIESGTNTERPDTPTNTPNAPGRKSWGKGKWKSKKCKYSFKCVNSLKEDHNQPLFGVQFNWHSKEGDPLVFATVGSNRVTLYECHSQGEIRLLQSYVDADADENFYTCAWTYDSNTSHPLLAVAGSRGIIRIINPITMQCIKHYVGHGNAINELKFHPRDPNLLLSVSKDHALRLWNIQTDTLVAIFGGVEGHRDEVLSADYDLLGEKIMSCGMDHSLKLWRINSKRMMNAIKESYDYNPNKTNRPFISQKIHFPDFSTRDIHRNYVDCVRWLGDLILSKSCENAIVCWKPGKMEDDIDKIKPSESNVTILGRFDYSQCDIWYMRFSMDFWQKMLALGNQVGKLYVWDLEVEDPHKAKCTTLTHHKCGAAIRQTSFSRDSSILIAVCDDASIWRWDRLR
UniProt P35637: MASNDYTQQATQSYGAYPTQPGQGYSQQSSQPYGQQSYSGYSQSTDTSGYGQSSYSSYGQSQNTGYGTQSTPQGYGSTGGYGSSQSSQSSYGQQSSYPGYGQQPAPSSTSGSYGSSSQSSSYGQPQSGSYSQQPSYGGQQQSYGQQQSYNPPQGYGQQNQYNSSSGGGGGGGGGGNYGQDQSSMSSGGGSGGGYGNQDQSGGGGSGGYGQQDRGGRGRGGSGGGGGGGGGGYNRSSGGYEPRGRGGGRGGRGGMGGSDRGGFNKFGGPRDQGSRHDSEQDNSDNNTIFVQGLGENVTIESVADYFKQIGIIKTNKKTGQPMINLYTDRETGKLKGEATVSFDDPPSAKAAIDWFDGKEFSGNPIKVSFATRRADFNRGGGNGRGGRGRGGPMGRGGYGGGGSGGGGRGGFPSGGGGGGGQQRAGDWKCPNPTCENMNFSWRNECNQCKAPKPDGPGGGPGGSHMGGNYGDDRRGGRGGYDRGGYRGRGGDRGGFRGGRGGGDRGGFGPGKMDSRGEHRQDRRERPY
UniProt Q13547: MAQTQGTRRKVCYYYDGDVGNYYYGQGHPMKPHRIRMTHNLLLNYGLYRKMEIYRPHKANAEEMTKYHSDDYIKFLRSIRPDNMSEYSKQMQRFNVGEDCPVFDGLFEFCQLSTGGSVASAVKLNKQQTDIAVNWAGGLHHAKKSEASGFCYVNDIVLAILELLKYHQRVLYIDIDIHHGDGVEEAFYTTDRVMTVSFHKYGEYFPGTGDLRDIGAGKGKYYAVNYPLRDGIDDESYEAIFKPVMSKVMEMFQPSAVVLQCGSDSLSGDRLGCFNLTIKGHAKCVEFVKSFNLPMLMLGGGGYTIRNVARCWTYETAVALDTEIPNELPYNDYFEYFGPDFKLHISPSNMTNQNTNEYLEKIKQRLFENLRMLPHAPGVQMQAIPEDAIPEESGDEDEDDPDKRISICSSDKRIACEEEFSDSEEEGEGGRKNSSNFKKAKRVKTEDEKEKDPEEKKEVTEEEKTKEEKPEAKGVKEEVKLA
UniProt Q13263: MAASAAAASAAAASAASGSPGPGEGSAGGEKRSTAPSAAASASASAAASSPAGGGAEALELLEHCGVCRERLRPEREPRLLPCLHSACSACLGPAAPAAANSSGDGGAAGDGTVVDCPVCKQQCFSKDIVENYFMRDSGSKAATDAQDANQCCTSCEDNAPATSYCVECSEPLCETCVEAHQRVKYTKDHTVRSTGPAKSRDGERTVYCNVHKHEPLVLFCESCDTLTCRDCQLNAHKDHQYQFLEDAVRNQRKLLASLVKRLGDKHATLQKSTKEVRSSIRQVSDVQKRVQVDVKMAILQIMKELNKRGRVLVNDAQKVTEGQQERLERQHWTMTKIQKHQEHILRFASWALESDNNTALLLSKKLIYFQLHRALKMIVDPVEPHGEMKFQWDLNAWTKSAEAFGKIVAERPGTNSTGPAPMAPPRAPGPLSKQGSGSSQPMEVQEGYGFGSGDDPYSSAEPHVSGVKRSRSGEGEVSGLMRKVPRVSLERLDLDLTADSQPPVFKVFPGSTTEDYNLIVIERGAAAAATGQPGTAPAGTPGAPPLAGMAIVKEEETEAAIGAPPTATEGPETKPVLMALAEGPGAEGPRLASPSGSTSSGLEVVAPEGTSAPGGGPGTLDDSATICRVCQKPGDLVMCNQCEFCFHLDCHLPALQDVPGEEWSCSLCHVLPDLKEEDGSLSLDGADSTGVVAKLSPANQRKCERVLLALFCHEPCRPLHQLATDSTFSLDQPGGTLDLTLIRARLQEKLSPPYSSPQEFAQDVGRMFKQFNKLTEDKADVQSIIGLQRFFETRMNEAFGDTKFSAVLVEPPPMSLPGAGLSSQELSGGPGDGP
UniProt Q08945: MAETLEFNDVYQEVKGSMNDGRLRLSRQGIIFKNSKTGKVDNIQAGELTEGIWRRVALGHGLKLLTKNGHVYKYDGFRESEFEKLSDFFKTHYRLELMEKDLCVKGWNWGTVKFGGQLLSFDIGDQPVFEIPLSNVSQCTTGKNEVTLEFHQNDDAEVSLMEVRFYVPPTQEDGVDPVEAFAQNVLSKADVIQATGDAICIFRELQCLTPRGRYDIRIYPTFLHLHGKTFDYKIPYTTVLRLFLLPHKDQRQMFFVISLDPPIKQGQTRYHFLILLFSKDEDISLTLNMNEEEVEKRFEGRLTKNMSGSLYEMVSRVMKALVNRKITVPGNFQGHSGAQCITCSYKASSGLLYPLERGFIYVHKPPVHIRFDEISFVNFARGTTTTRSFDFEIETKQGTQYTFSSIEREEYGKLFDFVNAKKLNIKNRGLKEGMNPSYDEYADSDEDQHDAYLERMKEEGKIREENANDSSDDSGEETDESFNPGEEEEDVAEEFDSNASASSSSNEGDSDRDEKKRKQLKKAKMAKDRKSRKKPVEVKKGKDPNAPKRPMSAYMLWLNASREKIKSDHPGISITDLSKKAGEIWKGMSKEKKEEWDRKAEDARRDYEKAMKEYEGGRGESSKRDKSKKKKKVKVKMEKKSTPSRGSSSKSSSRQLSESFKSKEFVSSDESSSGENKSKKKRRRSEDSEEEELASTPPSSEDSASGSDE
UniProt P13010: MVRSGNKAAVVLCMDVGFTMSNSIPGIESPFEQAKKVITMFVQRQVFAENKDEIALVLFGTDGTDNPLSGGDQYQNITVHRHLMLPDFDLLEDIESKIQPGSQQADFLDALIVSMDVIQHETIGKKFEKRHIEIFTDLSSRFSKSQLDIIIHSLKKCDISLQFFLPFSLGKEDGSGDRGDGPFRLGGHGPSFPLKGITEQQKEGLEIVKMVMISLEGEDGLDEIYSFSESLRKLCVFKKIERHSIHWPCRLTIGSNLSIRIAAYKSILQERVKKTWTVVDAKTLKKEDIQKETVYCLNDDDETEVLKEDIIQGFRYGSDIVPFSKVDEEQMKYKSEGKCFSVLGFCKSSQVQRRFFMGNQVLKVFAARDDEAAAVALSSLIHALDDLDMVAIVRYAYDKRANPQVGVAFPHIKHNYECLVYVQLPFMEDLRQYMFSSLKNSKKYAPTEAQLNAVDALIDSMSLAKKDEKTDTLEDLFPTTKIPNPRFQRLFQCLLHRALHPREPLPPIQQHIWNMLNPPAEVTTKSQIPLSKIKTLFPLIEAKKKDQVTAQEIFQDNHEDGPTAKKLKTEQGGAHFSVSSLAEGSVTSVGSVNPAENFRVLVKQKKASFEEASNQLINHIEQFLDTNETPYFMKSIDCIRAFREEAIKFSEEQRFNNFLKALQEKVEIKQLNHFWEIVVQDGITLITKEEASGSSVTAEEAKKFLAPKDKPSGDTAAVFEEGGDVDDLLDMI
UniProt P12956: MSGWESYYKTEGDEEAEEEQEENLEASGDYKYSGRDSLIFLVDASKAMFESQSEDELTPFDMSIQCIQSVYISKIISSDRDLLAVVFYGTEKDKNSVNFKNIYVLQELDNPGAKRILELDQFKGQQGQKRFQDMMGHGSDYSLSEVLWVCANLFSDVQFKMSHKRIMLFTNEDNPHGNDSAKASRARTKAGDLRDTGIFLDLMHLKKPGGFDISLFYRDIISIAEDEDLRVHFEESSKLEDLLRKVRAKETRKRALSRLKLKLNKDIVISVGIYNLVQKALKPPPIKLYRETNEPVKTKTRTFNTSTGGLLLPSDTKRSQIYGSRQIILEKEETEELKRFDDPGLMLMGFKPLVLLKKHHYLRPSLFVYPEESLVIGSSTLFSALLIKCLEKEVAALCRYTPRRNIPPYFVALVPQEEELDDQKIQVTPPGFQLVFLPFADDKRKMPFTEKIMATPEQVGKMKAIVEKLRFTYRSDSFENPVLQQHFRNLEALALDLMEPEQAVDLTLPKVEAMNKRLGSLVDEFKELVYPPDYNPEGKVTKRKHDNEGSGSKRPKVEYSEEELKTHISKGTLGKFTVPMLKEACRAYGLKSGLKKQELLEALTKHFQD
UniProt Q01105: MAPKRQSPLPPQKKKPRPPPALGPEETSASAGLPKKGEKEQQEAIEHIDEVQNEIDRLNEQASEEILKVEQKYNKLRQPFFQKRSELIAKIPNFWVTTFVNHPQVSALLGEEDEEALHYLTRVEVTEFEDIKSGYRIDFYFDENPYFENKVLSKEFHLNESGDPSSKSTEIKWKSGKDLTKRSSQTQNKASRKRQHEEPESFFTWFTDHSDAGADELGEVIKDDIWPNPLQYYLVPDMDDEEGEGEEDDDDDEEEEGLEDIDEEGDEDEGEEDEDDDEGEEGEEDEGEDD
UniProt P09874: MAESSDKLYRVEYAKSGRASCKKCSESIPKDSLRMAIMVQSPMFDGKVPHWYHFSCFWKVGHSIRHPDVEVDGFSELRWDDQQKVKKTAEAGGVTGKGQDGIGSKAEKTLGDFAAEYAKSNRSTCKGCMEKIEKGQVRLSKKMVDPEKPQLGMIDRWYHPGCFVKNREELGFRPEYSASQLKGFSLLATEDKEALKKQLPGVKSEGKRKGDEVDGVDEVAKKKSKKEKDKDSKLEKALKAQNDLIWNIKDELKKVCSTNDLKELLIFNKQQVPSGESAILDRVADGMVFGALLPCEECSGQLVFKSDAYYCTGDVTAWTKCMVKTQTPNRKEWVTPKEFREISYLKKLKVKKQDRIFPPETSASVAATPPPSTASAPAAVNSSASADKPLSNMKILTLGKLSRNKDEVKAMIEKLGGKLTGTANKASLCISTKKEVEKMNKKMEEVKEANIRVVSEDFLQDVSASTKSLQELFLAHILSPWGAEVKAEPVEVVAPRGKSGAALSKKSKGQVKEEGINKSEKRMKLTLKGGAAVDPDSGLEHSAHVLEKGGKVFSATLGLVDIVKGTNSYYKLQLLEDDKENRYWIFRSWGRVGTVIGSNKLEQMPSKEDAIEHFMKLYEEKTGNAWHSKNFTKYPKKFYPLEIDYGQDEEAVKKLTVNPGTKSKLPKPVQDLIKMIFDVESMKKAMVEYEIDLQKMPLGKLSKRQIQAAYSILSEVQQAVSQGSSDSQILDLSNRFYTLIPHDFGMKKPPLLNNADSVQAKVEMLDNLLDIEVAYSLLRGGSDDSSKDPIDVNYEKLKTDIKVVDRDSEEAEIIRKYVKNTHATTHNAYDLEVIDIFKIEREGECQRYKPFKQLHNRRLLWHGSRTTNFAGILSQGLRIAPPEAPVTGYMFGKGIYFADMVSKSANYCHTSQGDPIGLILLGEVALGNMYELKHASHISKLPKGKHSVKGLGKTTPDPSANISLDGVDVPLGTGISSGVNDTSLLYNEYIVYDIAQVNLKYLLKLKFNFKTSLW

B1: ZNF281 (protein, UniProt Q9Y2X9 1-895)
chain: MKIGSGFLSGGGGTGSSGGSGSGGGGSGGGGGGGSSGRRAEMEPTFPQGMVMFNHRLPPVTSFTRPAGSAAPPPQCVLSSSTSAAPAAEPPPPPAPDMTFKKEPAASAAAFPSQRTSWGFLQSLVSIKQEKPADPEEQQSHHHHHHHHYGGLFAGAEERSPGLGGGEGGSHGVIQDLSILHQHVQQQPAQHHRDVLLSSSSRTDDHHGTEEPKQDTNVKKAKRPKPESQGIKAKRKPSASSKPSLVGDGEGAILSPSQKPHICDHCSAAFRSSYHLRRHVLIHTGERPFQCSQCSMGFIQKYLLQRHEKIHSREKPFGCDQCSMKFIQKYHMERHKRTHSGEKPYKCDTCQQYFSRTDRLLKHRRTCGEVIVKGATSAEPGSSNHTNMGNLAVLSQGNTSSSRRKTKSKSIAIENKEQKTGKTNESQISNNINMQSYSVEMPTVSSSGGIIGTGIDELQKRVPKLIFKKGSRKNTDKNYLNFVSPLPDIVGQKSLSGKPSGSLGIVSNNSVETIGLLQSTSGKQGQISSNYDDAMQFSKKRRYLPTASSNSAFSINVGHMVSQQSVIQSAGVSVLDNEAPLSLIDSSALNAEIKSCHDKSGIPDEVLQSILDQYSNKSESQKEDPFNIAEPRVDLHTSGEHSELVQEENLSPGTQTPSNDKASMLQEYSKYLQQAFEKSTNASFTLGHGFQFVSLSSPLHNHTLFPEKQIYTTSPLECGFGQSVTSVLPSSLPKPPFGMLFGSQPGLYLSALDATHQQLTPSQELDDLIDSQKNLETSSAFQSSSQKLTSQKEQKNLESSTGFQIPSQELASQIDPQKDIEPRTTYQIENFAQAFGSQFKSGSRVPMTFITNSNGEVDHRVRTSVSDFSGYTNMMSDVSEPCSTRVKTPTSQSYR
B2: CTCF (CCCTC-binding factor) (protein, UniProt P49711 1-727)
chain: MEGDAVEAIVEESETFIKGKERKTYQRRREGGQEEDACHLPQNQTDGGEVVQDVNSSVQMVMMEQLDPTLLQMKTEVMEGTVAPEAEAAVDDTQIITLQVVNMEEQPINIGELQLVQVPVPVTVPVATTSVEELQGAYENEVSKEGLAESEPMICHTLPLPEGFQVVKVGANGEVETLEQGELPPQEDPSWQKDPDYQPPAKKTKKTKKSKLRYTEEGKDVDVSVYDFEEEQQEGLLSEVNAEKVVGNMKPPKPTKIKKKGVKKTFQCELCSYTCPRRSNLDRHMKSHTDERPHKCHLCGRAFRTVTLLRNHLNTHTGTRPHKCPDCDMAFVTSGELVRHRRYKHTHEKPFKCSMCDYASVEVSKLKRHIRSHTGERPFQCSLCSYASRDTYKLKRHMRTHSGEKPYECYICHARFTQSGTMKMHILQKHTENVAKFHCPHCDTVIARKSDLGVHLRKQHSYIEQGKKCRYCDAVFHERYALIQHQKSHKNEKRFKCDQCDYACRQERHMIMHKRTHTGEKPYACSHCDKTFRQKQLLDMHFKRYHDPNFVPAAFVCSKCGKTFTRRNTMARHADNCAGPDGVEGENGGETKKSKRGRKRKMRSKKEDSSDSENAEPDLDDNEDEEEPAVEIEPEPEPQPVTPAPPPAKKRRGRPPGRTNQPKQNQPTAIIQVEDQNTGAIENIIVEVKKEPDAEPAEGEEEEAQPAATDAPNGDLTPEMILSMMDR
B3: ZNF280C/ZPET (protein, UniProt Q8ND82 1-737)
chain: MDDDKPFQPKNISKMAELFMECEEEELEPWQKKVEETQDEDDDELIFVGEISSSKPAISNILNRGHSSSSSKGIKSEPHSPGIPEIFRTASQRCRDPPSNPVAASPRFHLVSKSSQSSVTVENASKPDFTKNSQVGSDNSSILLFDSTQESLPPSQDIPAIFREGMKNTSYVLKHPSTSKVNSVTPKKPKTSEDVPQINPSTSLPLIGSPPVTSSQVMLSKGTNTSSPYDAGADYLRACPKCNVQFNLLDPLKYHMKHCCPDMITKFLGVIVKSERPCDEDKTDSETGKLIMLVNEFYYGRHEGVTEKEPKTYTTFKCFSCSKVLKNNIRFMNHMKHHLELEKQNNESWENHTTCQHCYRQYPTPFQLQCHIESTHTPHEFSTICKICELSFETEHILLQHMKDTHKPGEMPYVCQVCQFRSSTFSDVEAHFRAAHENTKNLLCPFCLKVSKMATPYMNHYMKHQKKGVHRCPKCRLQFLTSKEKAEHKAQHRTFIKPKELEGLPPGAKVTIRASLGPLQSKLPTAPFGCAPGTSFLQVTPPTSQNTTARNPRKSNASRSKTSKLHATTSTASKVNTSKPRGRIAKSKAKPSYKQKRQRNRKNKMSLALKNIRCRRGIHKCIECHSKIKDFASHFSIYIHCSFCKYNTNCNKAFVNHMMSSHSNHPGKRFCIFKKHSGTLRGITLVCLKCDFLADSSGLDRMAKHLSQRKTHTCQVIIENVSKSTSTSEPTTGCSLK

These are yes or no findings as the source states them, for the method shown. In cells and extracts the contact can be indirect. Here binding means that the protein was enriched with, or labelled near, the bait; the list need not be complete.

This experiment has as its target GFP-ZNF432 (expressed in HEK293T cells) (human) (UniProt O94892). As to the kind of experiment: affinity purification with mass spectrometry; GFP-ZNF432 captured from HEK293T whole cell extracts (wild type and PARP-1 KO, untreated or hydrogen peroxide) on Protein G Dynabeads coated with anti-GFP antibody; 40 mM HEPES pH 7.5, 0.3% CHAPS, 150 mM NaCl, 4°C, 2 h; on-bead digestion, LC-MS/MS.
As for BLM (from UniProt P54132 1-1417), the binding result is “binds”.
The value for EED (from UniProt O75530 1-441) was “binds”; that for FUS (from UniProt P35637 1-526) was “binds”.
In the case of HDAC1 (from UniProt Q13547 1-482), the binding result was “binds”.
On to “KRAB-associated protein 1 (from UniProt Q13263 1-835)”, for which the binding entry was “binds”.
For the molecule MDC1 (from UniProt Q14676 1-2089), the binding result was “binds”.
Take “PRKDC/DNA-PKcs (from UniProt P78527 1-4128)”: the binding entry is “binds”.
The result for SMARCA5 (from UniProt O60264 1-1052) reads “binds”.
The result for SSRP1 (from UniProt Q08945 1-709) reads “binds”; that for SUPT16H (from UniProt Q9Y5B9 1-1047), “binds”.
With SUZ12 (from UniProt Q15022 1-739), the binding entry is listed as “binds”.
As for TOP1 (from UniProt P11387 1-765), the binding result is recorded as “binds”.
For XRCC5/KU80 (from UniProt P13010 1-732), the binding entry is listed as “binds”.
The result for XRCC6/KU70 (from UniProt P12956 1-609) reads “binds”; that for “nuclear oncogene SET (from UniProt Q01105 1-290)”, “binds”; that for “poly(ADP-ribose) polymerase-1 (endogenous, HEK293T) (from UniProt P09874 1-1014)”, “binds”.
B1: the binding result was “binds”.
The result for B2 reads “binds”; that for B3, “binds”.
